Test results published in PubChem BioAssay AID493014 (National Center for Advancing Translational Sciences (NCATS), 2011).
The other results are listed elsewhere or left out. The main result of the screen is listed elsewhere. These columns were measured beside it and carry no call. Most of these compounds were active or inconclusive in the main read-out, so they are no random draw. Words in brackets tell the shape of the fitted curve; partial curves, single points and poor fits give uncertain potencies.

Test: qHTS Assay to Find Inhibitors of Chronic Active B-Cell Receptor Signaling
Conditions: ABC-DLBCL IkBa-CBG/CBR reporter, luminescence ratio (green luciferase fused to IkBa over red control in TMD8 lymphoma cells), 4 h
Outline: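 Doxycycline induced both beetle luciferases in TMD8 lymphoma cells; IKK-driven degradation limits the IkappaBalpha-fused green signal, while red luminescence normalises for cell number and nonspecific effects. Compounds tested up to 46 uM, 4 hrs.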

[1] = measured here: CBR red luminescence, cell number
[2] = measured here: IkBa-CBG green luminescence

Row | SMILES | AC50 [1] | AC50 [2]
1 | Cc1nn(C)cc1/C=N/NC(=O)CSc1ccccn1 | 31.6 µM [rising, single point] | 
2 | CC(NC(=O)C1CCCN1S(=O)(=O)c1cccc2cccnc12)c1ccccc1 (configuration not stated) | 10.3 µM [rising, partial curve, poor fit] | 
3 | COC(=O)[C@@]1(C)[C@H]2C(=O)N(Cc3ccccc3)C(=O)[C@H]2[C@H]2CN=C(SCc3ccc(C#N)cc3)N21 | 20.6 µM [rising, partial curve] | 
4 | O=C(Nc1ccc(NC(=O)c2ccccc2Cl)cc1)c1cccnc1 | 35.5 µM [falling, single point] | 
5 | O=C(Nc1nnc(SCC(=O)N2CCOCC2)s1)C1CC(=O)N(c2ccc(F)cc2)C1 (configuration not stated) | 8.91 µM [falling, partial curve, poor fit] | 
6 | CC(=O)c1ccc(Nc2c(C)n(C)n(-c3ccccc3)c2=O)cc1 | 14.1 µM [falling, partial curve, poor fit] | 
7 | COc1ccc(C2C(C(=O)Nc3cc(OC)c(OC)c(OC)c3)c3ccccc3C(=O)N2C)cc1 (configuration not stated) | 15.8 µM [rising, partial curve] | 31.6 µM [falling, single point]
8 | CCCCN(C(=O)c1cccc(S(=O)(=O)N2CCN(C)CC2)c1)c1c(N)n(CCCC)c(=O)[nH]c1=O | 20.6 µM [rising, single point] | 
9 | COc1ccc(/C=C2\SC(=S)N(CCC(=O)N3CCCCC3)C2=O)cc1 | 12.6 µM [falling, partial curve] | 
10 | CCCC(C(=O)Nc1ccc(S(=O)(=O)N2CCOCC2)cc1)c1ccccc1 (configuration not stated) | 14.6 µM [rising, partial curve] | 
11 | COc1ccc(C(=O)OCc2cc(=O)n3c(C)csc3n2)cc1F | 2.06 µM [rising, full curve] | 
12 | C/C(=N\NC(=S)NCc1ccccc1)c1ccccc1F | 35.5 µM [rising, single point] | 31.6 µM [falling, single point]
13 | CCOC(=O)CNC(c1ccccc1)c1cc(Br)ccc1NC(=O)OCC (configuration not stated) | 15.8 µM [falling, single point] | 
14 | COc1cccc(C(C(=O)NC(C)(C)C)N(C(=O)CCC(=O)Nc2cc(C)on2)C(C)C)c1OC (configuration not stated) | 0.461 µM [falling, partial curve, poor fit] | 
15 | O=C(N/N=C/C1CC=CCC1)c1cc(Br)ccc1O (configuration not stated) | 1.03 µM [falling, full curve] | 
16 | CN(CC(=O)Nc1ccc(F)c(F)c1F)C(=O)c1cc(-c2ccncc2)nc2ccccc12 | 13 µM [falling, partial curve, poor fit] | 
17 | Cc1nc(NC(=O)c2ccccc2)sc1-c1csc(NCc2ccco2)n1 | 18.4 µM [falling, single point] | 
18 | COc1ccccc1-n1cnc2cc(NCc3ccccn3)ccc21 | 3.55 µM [falling, partial curve, poor fit] | 
19 | N#Cc1c(NC(=O)CSCC(=O)O)sc2c1CCCC2 | 12.6 µM [falling, partial curve, poor fit] | 

Excerpt: compounds 14 to 15
Row | SMILES | AC50 [1] | AC50 [2]
14 | COc1cccc(C(C(=O)NC(C)(C)C)N(C(=O)CCC(=O)Nc2cc(C)on2)C(C)C)c1OC (configuration not stated) | 0.461 µM [falling, partial curve, poor fit] | 
15 | O=C(N/N=C/C1CC=CCC1)c1cc(Br)ccc1O (configuration not stated) | 1.03 µM [falling, full curve] | 

Additional structures.

Row | SMILES | AC50 [1] | AC50 [2]
20 | O=C(Nc1nc2c(s1)COc1ccccc1-2)c1cccs1 | 9.2 µM [falling, partial curve] | 0.184 µM [rising, full curve, poor fit]
21 | COc1ccc(N(CC(=O)Nc2cccc(N(C)S(C)(=O)=O)c2)S(=O)(=O)c2ccccc2)cc1Cl | 1.12 µM [falling, full curve, poor fit] | 
22 | Cc1n(Cc2ccccc2)c2ccccc2[n+]1Cc1ccccc1 | 8.91 µM [falling, partial curve] | 
23 | Cc1nn(-c2ccc(Cl)cc2)c(NC(=O)C(C)C)c(-c2ccccc2)c1=O | 5.62 µM [rising, single point] | 
24 | O=C(NCCNC(=O)c1cc(OCC(F)(F)F)ccc1OCC(F)(F)F)Nc1ccc(Cl)cc1 | 0.501 µM [rising, partial curve, poor fit] | 
25 | C[C@]12CCC3C(CC=C4C[C@@H](O)CC[C@@]43C)C1CCC2[C@]1(C)CCC(=O)O1 (some centres not stated) | 11.6 µM [rising, partial curve, poor fit] | 
26 | O=C(Nc1nc(-c2ccc(Cl)s2)cs1)c1cccs1 | 12.6 µM [falling, partial curve, poor fit] | 
27 | O=C(O)c1cccc(S(=O)(=O)Nc2ccc3c(c2)OCO3)c1 | 17.8 µM [rising, single point] | 
28 | Cc1ccccc1-n1sc2cc(F)ccc2c1=O | 11.2 µM [falling, partial curve] | 5.62 µM [falling, single point]
29 | O=C(Nc1ccc(F)cc1F)c1noc2c1CCC2 | 10.3 µM [falling, partial curve, poor fit] | 
30 | CCCN(C1CCS(=O)(=O)C1)S(=O)(=O)c1cc(OC)ccc1OC (configuration not stated) | 20.6 µM [rising, single point] | 
31 | O=C(COC(=O)c1cccs1)NCC1CCCCC1 | 35.5 µM [rising, single point] | 
32 | Cc1cccnc1NC(=O)CNC(=O)c1sc2ccccc2c1Cl | 0.651 µM [falling, partial curve, poor fit] | 
33 | N/C(=N\OC(=O)c1ccc(Cl)cc1Cl)c1ccccc1 | 1.12 µM [rising, partial curve, poor fit] | 
34 | O=C(Nc1ccc(Cl)cc1C(=O)NCC1CCCO1)c1ccc(Cl)cc1Cl (configuration not stated) | 0.517 µM [falling, partial curve, poor fit] | 
35 | Cc1cccc(-c2nc3ccc(C(=O)NCCN4CCN(C)CC4)cc3nc2-c2cccc(C)c2)c1 | 35.5 µM [falling, single point] | 
36 | COc1cc(OC)cc(-c2cc3cc4c(cc3cn2)OCO4)c1 |  | 9.2 µM [falling, partial curve]
37 | COc1ccccc1C(=O)Nc1cccc(C(=O)N2CCOCC2)c1 | 3.16 µM [falling, partial curve, poor fit] | 
38 | C=CCn1cc(C(=O)NCCCOCC)c(=O)c2cc(S(=O)(=O)N(CC)CC)ccc21 | 4.47 µM [rising, single point] | 
